From patent US20210093693A1
No constants are given. Whether binding was seen depends on the method and setting. For some of these results: Binding seen in cells or lysates may run through a third protein. Some binding calls cover weakened binding; strength is not graded here. For some of these results: Sequences can lack the tags named with a protein.

By UniProt entry, the sequences of proteins in these tests, tags left out. Where a name states a change or a piece, a line headed by the entry shows the natural chain unless it says otherwise.
UniProt P49023: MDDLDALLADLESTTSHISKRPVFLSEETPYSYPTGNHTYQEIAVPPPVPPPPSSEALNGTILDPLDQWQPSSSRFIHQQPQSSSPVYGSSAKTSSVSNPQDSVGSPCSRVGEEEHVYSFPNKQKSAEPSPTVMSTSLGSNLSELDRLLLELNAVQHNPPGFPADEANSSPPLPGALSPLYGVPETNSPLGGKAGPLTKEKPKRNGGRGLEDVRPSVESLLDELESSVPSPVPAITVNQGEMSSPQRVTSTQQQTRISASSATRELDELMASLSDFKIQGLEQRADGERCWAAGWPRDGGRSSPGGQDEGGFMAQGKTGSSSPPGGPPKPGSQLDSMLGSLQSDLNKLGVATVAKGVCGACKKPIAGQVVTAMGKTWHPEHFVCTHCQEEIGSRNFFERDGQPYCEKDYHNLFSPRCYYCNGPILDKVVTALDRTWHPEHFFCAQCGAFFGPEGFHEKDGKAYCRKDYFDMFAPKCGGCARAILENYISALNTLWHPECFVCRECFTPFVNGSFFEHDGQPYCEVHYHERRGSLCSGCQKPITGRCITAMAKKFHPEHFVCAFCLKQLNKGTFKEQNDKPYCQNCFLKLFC
UniProt P17655: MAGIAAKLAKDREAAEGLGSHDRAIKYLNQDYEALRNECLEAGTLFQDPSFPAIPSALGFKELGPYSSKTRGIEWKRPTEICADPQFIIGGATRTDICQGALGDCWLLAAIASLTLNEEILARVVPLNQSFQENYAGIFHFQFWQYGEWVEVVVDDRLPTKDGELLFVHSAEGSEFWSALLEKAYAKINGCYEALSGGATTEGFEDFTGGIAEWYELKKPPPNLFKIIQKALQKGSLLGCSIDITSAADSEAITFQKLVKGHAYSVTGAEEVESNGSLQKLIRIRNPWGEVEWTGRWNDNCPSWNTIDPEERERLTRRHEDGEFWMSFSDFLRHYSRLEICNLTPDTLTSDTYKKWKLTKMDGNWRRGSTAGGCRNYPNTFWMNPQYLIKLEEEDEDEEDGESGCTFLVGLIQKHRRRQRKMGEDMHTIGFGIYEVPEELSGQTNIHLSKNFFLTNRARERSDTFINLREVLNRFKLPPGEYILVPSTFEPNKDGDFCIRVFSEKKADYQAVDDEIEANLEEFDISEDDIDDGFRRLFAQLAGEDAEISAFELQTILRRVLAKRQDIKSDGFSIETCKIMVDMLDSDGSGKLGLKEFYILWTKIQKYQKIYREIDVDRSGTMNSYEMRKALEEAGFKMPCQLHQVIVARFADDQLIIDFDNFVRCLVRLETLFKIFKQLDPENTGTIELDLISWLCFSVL

How the values were obtained:
[1] = biological target: paxillin (endogenous, in HDF cells) (human (HDF cells)) (UniProt P49023); test: immunoprecipitation with anti-paxillin antibody from siβPIX-treated HDF cells, immunoblotting
[2] = biological target: paxillin (endogenous, in HDF cells) (human (HDF cells)) (UniProt P49023); test: immunoprecipitation with anti-calpain-2, immunoblotting for paxillin, HDF cells
[3] = biological target: paxillin (endogenous, in HDF cells) (human (HDF cells)) (UniProt P49023); test: immunoprecipitation with anti-calpain 2 and immunoblotting, HDF cells (FIG. 4A)
[4] = biological target: paxillin (endogenous, in HDF cells) (human (HDF cells)) (UniProt P49023); test: co-immunoprecipitation, HDF cells
[5] = biological target: paxillin (endogenous, in HDF cells) (human (HDF cells)) (UniProt P49023); test: immunoprecipitation and immunoblotting, HDF cells (FIG. 3A)
[6] = biological target: Recombinant paxillin-His protein (UniProt P49023); test: GST pulldown with proteins overexpressed in bacteria
[7] = biological target: Recombinant paxillin-His protein (UniProt P49023); test: GST pulldown (FIG. 4B)
[8] = biological target: paxillin (endogenous, in HDF cells) (human (HDF cells)) (UniProt P49023); test: immunoprecipitation with anti-AMPH-I and immunoblotting, HDF cells (FIG. 4A)
[9] = biological target: paxillin (endogenous, in HDF cells) (human (HDF cells)) (UniProt P49023); test: immunoprecipitation with anti-AMPH-I, immunoblotting for paxillin, HDF cells
[10] = biological target: Recombinant paxillin-His protein (UniProt P49023); test: GST pulldown with AMPH-NT and AMPH-CT regions
[11] = biological target: Recombinant paxillin-His protein (UniProt P49023); test: GST pulldown
[12] = biological target: Recombinant paxillin-His protein (UniProt P49023); test: GST pulldown (FIG. 4C)
[13] = biological target: Recombinant paxillin-His protein (UniProt P49023); test: competition on Ni2+ bead-bound paxillin, competitor GST-calpain-2; GST-GIT1-CT added at 0, 1, 3 and 10 µg; immunoblotting
[14] = biological target: Recombinant paxillin-His protein (UniProt P49023); test: competition on bead-bound paxillin, competitor GST-calpain-2, immunoblotting (FIG. 5A)
[15] = biological target: Recombinant paxillin-His protein (UniProt P49023); test: competition on bead-bound paxillin, competitor calpain-2, immunoblotting
[16] = biological target: paxillin (endogenous, in HDF cells) (human (HDF cells)) (UniProt P49023); test: co-immunoprecipitation with anti-paxillin antibody from siβPIX-treated HDF cells overexpressing GFP or GFP-GIT-CT, immunoblotting
[17] = biological target: paxillin (endogenous, in HDF cells) (human (HDF cells)) (UniProt P49023); test: co-immunoprecipitation from siβPIX-treated HDF cells (FIG. 5B)

Measured: binding

calpain-2 (endogenous, in HDF cells) (from UniProt P17655 2-700) (enzyme)
binds: [1] | [2] | [3] | [4] | [5]

GST-calpain-2 (from UniProt P17655 1-700) (enzyme)
binds: [6] | [7]

B1: AMPH-I (amphiphysin-I) (endogenous, in HDF cells) (protein, human (HDF cells), UniProt P49418 1-695, looked up)
chain: MADIKTGIFAKNVQKRLNRAQEKVLQKLGKADETKDEQFEEYVQNFKRQEAEGTRLQRELRGYLAAIKGMQEASMKLTESLHEVYEPDWYGREDVKMVGEKCDVLWEDFHQKLVDGSLLTLDTYLGQFPDIKNRIAKRSRKLVDYDSARHHLEALQSSKRKDESRISKAEEEFQKAQKVFEEFNVDLQEELPSLWSRRVGFYVNTFKNVSSLEAKFHKEIAVLCHKLYEVMTKLGDQHADKAFTIQGAPSDSGPLRIAKTPSPPEEPSPLPSPTASPNHTLAPASPAPARPRSPSQTRKGPPVPPLPKVTPTKELQQENIISFFEDNFVPEISVTTPSQNEVPEVKKEETLLDLDFDPFKPEVTPAGSAGVTHSPMSQTLPWDLWTTSTDLVQPASGGSFNGFTQPQDTSLFTMQTDQSMICNLAESEQAPPTEPKAEEPLAAVTPAVGLDLGMDTRAEEPVEEAVIIPGADADAAVGTLVSAAEGAPGEEAEAEKATVPAGEGVSLEEAKIGTETTEGAESAQPEAEELEATVPQEKVIPSVVIEPASNHEEEGENEITIGAEPKETTEDAAPPGPTSETPELATEQKPIQDPQPTPSAPAMGAADQLASAREASQELPPGFLYKVETLHDFEAANSDELTLQRGDVVLVVPSDSEADQDAGWLVGVKESDWLQYRDLATYKGLFPENFTRRLD
binds: [8] | [1] | [4] | [9]

B2: GST-tagged amphiphysin I N-terminal construct (NT, a.a. 1-351) (protein, UniProt P49418 1-351, looked up, not shown: a dimerising Fc or GST)
chain: MADIKTGIFAKNVQKRLNRAQEKVLQKLGKADETKDEQFEEYVQNFKRQEAEGTRLQRELRGYLAAIKGMQEASMKLTESLHEVYEPDWYGREDVKMVGEKCDVLWEDFHQKLVDGSLLTLDTYLGQFPDIKNRIAKRSRKLVDYDSARHHLEALQSSKRKDESRISKAEEEFQKAQKVFEEFNVDLQEELPSLWSRRVGFYVNTFKNVSSLEAKFHKEIAVLCHKLYEVMTKLGDQHADKAFTIQGAPSDSGPLRIAKTPSPPEEPSPLPSPTASPNHTLAPASPAPARPRSPSQTRKGPPVPPLPKVTPTKELQQENIISFFEDNFVPEISVTTPSQNEVPEVKKEETL
binds: [10] | [11] | [12]

B3: GST-GIT1-CT (GIT1 C-terminus, amino acids 376-770) (protein, not shown: a dimerising Fc or GST)
chain: LELSARNQSDLDDQHDYDSVASDEDTDQEPLPSAGATRNNRARSMDSSDLSDGAVTLQEYLELKKALATSEAKVQQLMKVNSSLSDELRKLQREIHKLQAENLQLRQPPGPVPVPSLPSERAEHTLMGPGGSTHRRDRQAFSMYEPGSALKPFGGAPGDELATRLQPFHSTELEDDAIYSVHVPAGLYRIRKGVSASSVTFTPSSPLLSSSQEGSRHASKLSRHGSGAESDYENTQSGEPLLGLEGKRFLELSKEDELHAELESLDGDPDPGLPSTEDVILKTEQVTKNIQELLRAAQEFKHDSFVPCSEKIHLAVTEMASLFPKRPALEPVRSSLRLLNASAYRLQSECRKTVPPEPGAPVDFQLLTQQVIQCAYDIAKAAKQLVTITTREKKQ
binds: [13] | [14] | [15]

B4: GFP-GIT-CT (protein, not shown: large carriers)
chain: B3 chain
binds: [16] | [17]
